PubChem BioAssay AID1259254 | NCATS, 2017
Aim: 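Finding genes that stop cells copying their DNA twice in one cycle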 (primary screen). System: human HCT116 colorectal cancer cells. Reagents: single siRNA against human genes. Timing: 3 days. Detection: 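Nuclei stained with Hoechst and imaged; cell-cycle phase assigned by DNA content; G2 share scaled per plate, non-targeting siRNA 0%, GMNN siRNA 100%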. Direction: G2 robust z-score and G2 cells, % of GMNN control: higher = more G2 cells, more excess DNA replication. Call rule: 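An siRNA counts as active if its G2 robust z-score lies at least 5 MADs above the screen median; here such calls match roughly 38% of GMNN control or more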.
In all, the deposit lists about 59,000 reagents; this is a random part of them. About 1,550 of them (2.6%) were called active. 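G2 share is only a proxy for re-replication; each gene was hit by three separate siRNAs, and active genes were retested.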 The numbers tell different reagents against one gene apart. Not all columns of the deposit are shown. No sequences are given here. The record does not give: the amount of reagent.

TAF1 #1 — G2 robust z-score: 3.24; G2 cells, % of GMNN control: 25.8; activity call: inactive
TAF1 #2 — G2 robust z-score: 10.8; G2 cells, % of GMNN control: 79; activity call: active
TAF1 #3 — G2 robust z-score: 0.2; G2 cells, % of GMNN control: 4.38; activity call: inactive
HSD11B1 #1 — G2 robust z-score: 0.822; G2 cells, % of GMNN control: 8.75; activity call: inactive
HSD11B1 #2 — G2 robust z-score: -0.131; G2 cells, % of GMNN control: 2.05; activity call: inactive
HSD11B1 #3 — G2 robust z-score: -0.873; G2 cells, % of GMNN control: -3.18; activity call: inactive
HTR4 #1 — G2 robust z-score: 0.357; G2 cells, % of GMNN control: 5.48; activity call: inactive
HTR4 #2 — G2 robust z-score: -0.266; G2 cells, % of GMNN control: 1.1; activity call: inactive
HTR4 #3 — G2 robust z-score: 3.21; G2 cells, % of GMNN control: 25.6; activity call: inactive
FLJ40039 (retired record) #1 — G2 robust z-score: 0.393; G2 cells, % of GMNN control: 5.73; activity call: inactive
FLJ40039 (retired record) #2 — G2 robust z-score: 3.77; G2 cells, % of GMNN control: 29.5; activity call: inactive
FLJ40039 (retired record) #3 — G2 robust z-score: 0.858; G2 cells, % of GMNN control: 9; activity call: inactive
TFAP2B #1 — G2 robust z-score: 0.679; G2 cells, % of GMNN control: 7.75; activity call: inactive
TFAP2B #2 — G2 robust z-score: -0.813; G2 cells, % of GMNN control: -2.75; activity call: inactive
TFAP2B #3 — G2 robust z-score: -0.684; G2 cells, % of GMNN control: -1.84; activity call: inactive
ZNF560 #1 — G2 robust z-score: -0.0723; G2 cells, % of GMNN control: 2.46; activity call: inactive
ZNF560 #2 — G2 robust z-score: -0.669; G2 cells, % of GMNN control: -1.74; activity call: inactive
ZNF560 #3 — G2 robust z-score: -0.476; G2 cells, % of GMNN control: -0.381; activity call: inactive
B2M #1 — G2 robust z-score: -0.503; G2 cells, % of GMNN control: -0.574; activity call: inactive
B2M #2 — G2 robust z-score: 1.28; G2 cells, % of GMNN control: 11.9; activity call: inactive
B2M #3 — G2 robust z-score: -1.14; G2 cells, % of GMNN control: -5.06; activity call: inactive
AP3B2 #1 — G2 robust z-score: 0.366; G2 cells, % of GMNN control: 5.54; activity call: inactive
AP3B2 #2 — G2 robust z-score: -0.56; G2 cells, % of GMNN control: -0.97; activity call: inactive
AP3B2 #3 — G2 robust z-score: -0.585; G2 cells, % of GMNN control: -1.15; activity call: inactive

Records above whose gene name starts with A or a (3):
AP3B2 #1 — G2 robust z-score: 0.366; G2 cells, % of GMNN control: 5.54; activity call: inactive
AP3B2 #2 — G2 robust z-score: -0.56; G2 cells, % of GMNN control: -0.97; activity call: inactive
AP3B2 #3 — G2 robust z-score: -0.585; G2 cells, % of GMNN control: -1.15; activity call: inactive
